The list shows a part of the results.
B1: il2ra_site2_3nfp_sap_14_mot_HHH_b1_00660_af2_000000090_0001_40_57_H_._HHH_b2_06962_0001_0000100006_0000001_0_0001_af2pred_0001_af2pred_swapped (protein)
chain: SSSSDREEVEELLRELEEAVRRNDEELFRELAHRISKLIREIGDAELFFILVELRLEFLRSSSSS
B2: il2ra_site2_3nfp_sap_13_mot_HHH_b1_00487_000000023_0001_40_53_H_._HHH_b1_01657_af2_0001_0000400022_0000001_1_0001 (protein)
chain: SDAEAAELALRLIRAHALVHNDDEVREEVEKLEEELKEAKEKNDEELVEEIAERASELAEKVANS
B3: il2ra_site1_3nfp_sap_13_mot_HHH_b2_06502_000000119_0001_42_55_H_._HHH_b2_07191_af2_0001_0000400036_0000001_0_0001 (protein)
chain: GPEVERKLVEQALRLNSPRLLKKILRDAERFHGDPEEAERWLSELIAEVLKVPPEEAQEIVEEVK
B4: il2ra_site1_1z92_sap_20_mot_HHH_b1_00561_af2_000000294_0001_1_19_H_._HHH_eva_0050_af2_0002_0000400070_0000001_0_0001 (protein)
chain: SSSSSNLERALRQAVEIAVELAGLSEEQREELEEVARELVEKGVDPLEALKILDRVALELSSSSS
B5: il2ra_site1_1z92_normal_mot_HHH_b1_00108_af2_000000035_0001_38_51_H_._HHH_b2_06226_af2_0001_0000300019_0000001_0 (protein)
chain: SSSSSSEEERTERAQELFRQAARITDREEVERLLEEALELAKEANNENIKRDIEQYLEMLSSSSS
B6: il2ra_site2_2erj_normal_mot_HHH_b2_03913_af2_000000182_0001_1_19_H_._HHH_b2_00910_af2_0001_0000700018_0000001_0 (protein)
chain: SSSSQEAAELLARAWREAAKLFRNGNPEEAEEVLEEYAKEVEKLGDEEALEAIERFLKFLTSSSS
B7: il2ra_site1_1z92_sap_17_mot_00a0fa73c9dbd8f1f8571bd9de0225d9_0001_af2_000000011_0001_1_12_H_._80559a6cc29e48f8bbd5a2a34f257aa3_0001_0001_0000100009_0000001_1_00 … (protein)
chain: NLRAEDLREAVEKNDEEELRKFIRLLLEDSGDPRLVKQLLRELVKRLGLPPEVLERLEELLEELT
B8: il2ra_site2_3nfp_normal_mot_HHH_b2_04230_000000235_0001_39_52_H_._72a79b14e1a0e827e78e129a6f5f8f0c_0001_1_0001_0000200015_0000001_0 (protein)
chain: DREFSQRIFELAREGDPVAFLLYALLAEVAFKGDPELRRLLEEALEALERGNPEEAEEIVHKALQ
B9: il2ra_site1_3nfp_normal_mot_HHH_b2_08102_af2_000000255_0001_38_50_H_._HHH_b2_07461_af2_0001_0000100011_0000001_0_af2pred_0001_af2pred_swapped (protein)
chain: SSSSNEEFRKATELSKELLEALKRGDEEEARRLAEELLELARRLGSRIAEEFAEAVRERLSSSSS
B10: il2ra_site1_1z92_sap_22_mot_HHH_b1_05516_af2_000000202_0001_21_38_H_._HHH_b2_07203_0001_0000400022_0000001_0_0001_af2pred_0001_af2pred_swapped (protein)
chain: DDEAARYDLERSLKLGIPPEAVVKAVLRALERFLGDPEEALEVIERAIKLLNDPELEEVVEKLKP
B11: il2ra_site2_2erj_sap_24_mot_HHH_b2_01191_000000089_0001_39_55_H_._cf47d7165ffc3c79bdff036d7a8fd663_0001_1_0001_0000100002_0000001_0_0001 (protein)
chain: SSSSSDLLHRAYELANKLLHLVARKDEERFEEISEEFREIVERLQSENAREILENLERLLSSSSS
B12: il2ra_site1_3nfp_normal_mot_HHH_b1_07644_af2_000000110_0001_40_57_H_._HHH_b1_08167_af2_0001_0000100004_0000001_0 (protein)
chain: SSSSDERVEQASKLAKELWKAFRDGDEELVEELFEEVRRLAEELGDKIAEKLVRQLRELSNSSSS
B13: il2ra_site1_2b5i_normal_mot_HHH_b1_08426_af2_000000046_0001_39_52_H_._HHH_b1_02119_af2_0001_0000100008_0000001_0_af2pred_0001_af2pred_1 (protein)
chain: SSSSDELFHRVYELYLEASRLYQNGNPEEAEELLREALKLAEENNDPRLFKDVEQFLKALGSSSS
B14: il2ra_site2_3nfp_normal_mot_HHH_b1_04084_000000061_0001_23_39_H_._HHH_b1_06545_0001_0000100008_0000001_0 (protein)
chain: SSSSDEEVRRLIEEAEELLERGDPEEARRVLQRAVLLAAELRDRELFARLNELFELVVELSSSSS
B15: il2ra_site2_3nfp_normal_mot_HHH_b1_03557_000000106_0001_41_55_H_._HHH_b1_02274_0001_0000100002_0000001_1 (protein)
chain: SSSSDEEAREYVEEARELFEEGNHEEARKVLSKAVELVFEAGDFELFAILLELLAKIIQRSSSSS
B16: il2ra_site1_2b5i_sap_9_mot_HHH_b1_08678_af2_000000008_0001_41_54_H_._HHH_b2_03648_0001_0000600031_0000001_0_0001_af2pred_dldesign_0_af2pred (protein)
chain: SSSSSSPLEEAKKLLEEAKEALAAGDRRGALELLEKAYKLASEANDEELMDEIEELAKLVSSSSS
B17: il2ra_site1_1z92_sap_14_mot_HHH_b1_05516_af2_000000202_0001_21_38_H_._HHH_b1_08435_0001_0000100010_0000001_0_0001 (protein)
chain: SSSSSRSEERLRFVLENIELLVENGNERAAKWAIRLAEALARLLNDEEVRERLEELREEVNSSSS
B18: il2ra_site1_1z92_sap_13_mot_HHH_b2_00249_af2_000000052_0001_39_52_H_._HHH_b2_08181_0001_0000500029_0000001_0_0001_af2pred_0001_af2pred (protein)
chain: SSSSDILEKALRFLEEQIELKLKRGNEEAVERLLEHLEKDAKDADDPEAEKFVEEVKREISSSSS
B19: il2ra_site2_3nfp_normal_mot_HHH_b2_07129_000000128_0001_19_36_H_._HHH_b2_06031_0001_0000100003_0000001_1 (protein)
chain: SSSSDEEEKEIEELLERVKELLKEGDPHEAFALLADALYLAVQINNEELRKAVSELTRELYSSSS
B20: il2ra_site1_2b5i_sap_14_mot_HHH_b2_08285_000000041_0001_42_55_H_._HHH_b2_00494_0001_0000300031_0000001_1_0001_af2pred_dldesign_0_af2pred (protein)
chain: SSSSSAEEQVRALLAKARELYEAGRPEEARKLLLLARRVAKKAKDPELVKLVEDEEARLLASSSS
B21: il2ra_site1_2b5i_normal_mot_HHH_b2_03377_af2_000000170_0001_25_41_H_._HHH_b2_07765_0001_0000100006_0000001_0 (protein)
chain: SSSSSSDELEELIERIEEALKEGDAELVAKLALELAKLAARLNDEEAQRFVLEVHRRRKSSSSSS
B22: il2ra_site1_3nfp_normal_mot_HHH_b1_08357_af2_000000270_0001_1_19_H_._HHH_b1_04898_0002_0000400009_0000001_0 (protein)
chain: SSSSSELEERIRELLEELEELLREGDDEEASKLAQEISRLIKELGDNELAEILWELIRRDISSSS
B23: il2ra_site1_1z92_normal_mot_HHH_b1_03834_000000063_0001_1_16_H_._HHH_b1_01329_0001_0000800050_0000001_0 (protein)
chain: SSSSNEESLERRVEFLIEQAEILGDEEVLERLRELLERAQEEGDFRLLLEAAKLIMEAVRNSSSS
B24: il2ra_site1_3nfp_sap_19_mot_HHH_b1_08723_000000044_0001_1_15_H_._HHH_b2_03161_af2_0001_0000300022_0000001_0_0001 (protein)
chain: SSSSSDEEIREEVERLLEEAEKIEDHEEAAKVFQEAYRLARELGDQELADLIYEVIHRWISSSSS

The binders below were run against il2ra, P01589 (assay: yeast display titration).

Binder	apparent Kd
B1	inactive: no binding seen
B2	inactive: no binding seen
B3	inactive: no binding seen
B4	inactive: no binding seen
B5	inactive: no binding seen
B6	inactive: no binding seen
B7	inactive: no binding seen
B8	inactive: no binding seen
B9	inactive: no binding seen
B10	inactive: no binding seen
B11	inactive: no binding seen
B12	inactive: no binding seen
B13	inactive: no binding seen
B14	inactive: no binding seen
B15	inactive: no binding seen
B16	inactive: no binding seen
B17	inactive: no binding seen
B18	inactive: no binding seen
B19	inactive: no binding seen
B20	inactive: no binding seen
B21	inactive: no binding seen
B22	inactive: no binding seen
B23	inactive: no binding seen
B24	inactive: no binding seen

2 records picked at random from the list so far, as already listed:
Binder	apparent Kd
B24	inactive: no binding seen
B20	inactive: no binding seen

— paper PMC10163288
